Laboratory results published in patent US8461328B2, “Tricyclic heterocyclic compounds, compositions and methods of use thereof” (Genentech, Inc., priority 2010, dated 2013).
Some entries share one result that the patent states for a list of compounds.

Amino acid sequences for entries named in this document (tags omitted). Residues count along the entry.
UniProt P23458, 852-1154: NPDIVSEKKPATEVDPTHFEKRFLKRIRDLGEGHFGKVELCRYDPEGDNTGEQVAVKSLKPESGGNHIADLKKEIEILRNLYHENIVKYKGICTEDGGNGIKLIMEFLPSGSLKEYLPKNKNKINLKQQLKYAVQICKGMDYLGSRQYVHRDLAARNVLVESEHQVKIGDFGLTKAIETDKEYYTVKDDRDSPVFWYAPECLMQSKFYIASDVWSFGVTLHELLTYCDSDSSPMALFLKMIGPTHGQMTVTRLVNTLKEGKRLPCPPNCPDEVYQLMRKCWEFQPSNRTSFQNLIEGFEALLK

Biological target: T1, human JAK1 kinase domain (Homo sapiens, UniProt P23458)
T1 construct: made in house; host or cells: SF9 insect cells (baculovirus)
Assay: JAK1 inhibition assay (Example B), Caliper LabChip peptide phosphorylation
Assay type: biochemical
Details: 1.5 nM JAK1, 25 μM ATP, Morrison tight binding model; read-out: Ki in a JAK1 kinase activity assay (Example B)

SMILES	Ki [nM]
FC(F)c1nc2cnc3[nH]ccc3c2n1C1CCN(Cc2ccccc2)CC1 [Example 299, 1-(1-Benzyl-piperidin-4-yl)-2-difluoromethyl-1,6-dihydro-1,3,5,6-tetraaza-as-indacene]	< 500
FC(F)(F)c1nc2cnc3[nH]ccc3c2n1[C@@H]1CCCNC1 [Example 301, 1-(R)-Piperidin-3-yl-2-trifluoromethyl-1,6-dihydro-1,3,5,6-tetraaza-as-indacene]	< 500
N#CCC(=O)N1CCC[C@@H](n2c(C(F)(F)F)nc3cnc4[nH]ccc4c32)C1 [Example 302, 3-Oxo-3-[(R)-3-(2-trifluoromethyl-6H-1,3,5,6-tetraaza-as-indacen-1-yl)-piperidin-1-yl]-propionitrile]	< 500
Fc1cncc(CN2CCC(n3cnc4cnc5[nH]ccc5c43)CC2)c1 [Example 303, 1-[1-(5-Fluoro-pyridin-3-ylmethyl)-piperidin-4-yl]-1,6-dihydro-1,3,5,6-tetraaza-as-indacene]	< 500
N#Cc1cccc(CN2CCC(n3cnc4cnc5[nH]ccc5c43)CC2)n1 [Example 304, 6-[4-(6H-1,3,5,6-Tetraaza-as-indacen-1-yl)-piperidin-1-ylmethyl]-pyridine-2-carbonitrile]	< 500
FC(F)c1nc2cnc3[nH]ccc3c2n1C1CCNCC1 [Example 307, 2-Difluoromethyl-1-piperidin-4-yl-1,6-dihydro-1,3,5,6-tetraaza-as-indacene]	< 500
N#CCCN1CCC(n2c(C(F)F)nc3cnc4[nH]ccc4c32)CC1 [Example 308, 3-[4-(2-Difluoromethyl-6H-1,3,5,6-tetraaza-as-indacen-1-yl)-piperidin-1-yl]-propionitrile]	< 500
N#Cc1cccc(CN2CCC(n3c(CC(=O)N4CCC(F)(F)CC4)nc4cnc5[nH]ccc5c43)CC2)n1 [Example 309]	< 500
CC(C)OC(=O)N[C@H]1CC[C@H](n2cnc3cnc4[nH]ccc4c32)CC1 [Example 310, [(R)-4-(6H-1,3,5,6-Tetraaza-as-indacen-1-yl)-cyclohexyl]-carbamic acid isopropyl ester]	< 500
N#Cc1cc(CN2CCC(n3cnc4cnc5[nH]ccc5c43)CC2)ccn1 [Example 313, 4-[4-(6H-1,3,5,6-Tetraaza-as-indacen-1-yl)-piperidin-1-ylmethyl]-pyridine-2-carbonitrile]	< 500
FC(F)(F)c1cccc(CN2CCC(n3cnc4cnc5[nH]ccc5c43)CC2)n1 [Example 314, 1-[1-(6Trifluoromethyl-pyridin-2-ylmethyl)-piperidin-4-yl]-1,6-dihydro-1,3,5,6-tetraaza-as-indacene]	< 500
O=C(C1CCC1)N1CCC[C@@H](n2cnc3cnc4[nH]ccc4c32)C1 [Example 315, Cyclobutyl-[(R)-3-(6H-1,3,5,6-tetraaza-as-indacen-1-yl)-piperidin1-yl]-methanone]	< 500
N#CC1(C(=O)N2CCC[C@@H](n3cnc4cnc5[nH]ccc5c43)C2)CCC1 [Example 316, 1-[(R)-3-(6H-1,3,5,6-Tetraaza-as-indacen-1-yl)-piperidine-carbonyl]-cyclobutanecarbonitrile]	< 500
CC(C)(C)OC(=O)NC1CC(n2cnc3cnc4[nH]ccc4c32)C1 (stereo not drawn) [Example 317, [3-(6H-1,3,5,6-Tetraaza-as-indacen-1-yl)-cyclobutyl]-carbamic acid tert-butyl ester]	< 500
NC1CC(n2cnc3cnc4[nH]ccc4c32)C1 (stereo not drawn) [Example 320, 3-(6H-1,3,5,6-Tetraaza-as-indacen-1-yl)-cyclobutylamine]	< 500
c1ccc(CN2CCC(n3c(C4CCC4)nc4cnc5[nH]ccc5c43)CC2)cc1 [Example 325, 1-(1-Benzyl-piperidin-4-yl)-2-cyclobutyl-1,6-dihydro-1,3,5,6-tetraaza-as-indacene]	< 500
c1cc2c(ncc3nc(C4CCC4)n(C4CCNCC4)c32)[nH]1 [Example 326, 2-Cyclobutyl-1-piperidin-4-yl-1,6-dihydro-1,3,5,6-tetraaza-as-indacene]	< 500
N#Cc1cccc(CNC2CC(n3cnc4cnc5[nH]ccc5c43)C2)c1 (stereo not drawn) [Example 329, 3-{[3-(6H-1,3,5,6-Tetraaza-as-indacen-1-yl)-cyclobutylamino]-methyl}-benzonitrile]	< 500
N#CCCNC1CC(n2cnc3cnc4[nH]ccc4c32)C1 (stereo not drawn) [Example 331, 3-[3-(6H-1,3,5,6-Tetraaza-as-indacen-1-yl)-cyclobutylamino]-propionitrile]	< 500
c1ncc(CN[C@H]2CC[C@@H](n3cnc4cnc5[nH]ccc5c43)CC2)cn1 [Example 333, Pyrimidin-5-ylmethyl-[4-(6H-1,3,5,6-tetraaza-as-indacen-1-yl)-cyclohexyl]-amine]	< 500
CC(C)(O)c1nc2cnc3[nH]ccc3c2n1C1CCNCC1 [Example 334, 2-(1-Piperidin-4-yl-1,6-dihydro-1,3,5,6-tetraaza-as-indacen-2-yl)-propan-2-ol]	< 500
CC(C)(O)c1nc2cnc3[nH]ccc3c2n1C1CCN(CCC#N)CC1 [Example 335, 3-{4-[2-(1-Hydroxy-1-methyl-ethyl)-6H-1,3,5,6-tetraaza-as-indacen-1-yl]-piperidin-1-yl}-propionitrile]	< 500
c1cncc(CN[C@H]2CC[C@H](n3cnc4cnc5[nH]ccc5c43)CC2)c1 [Example 336, Pyridin-3-ylmethyl-[4-(6H-1,3,5,6-tetraaza-as-indacen-1-yl)-cyclohexyl]-amine]	< 500
N#CCCN1CCC(n2c(C3CC3)nc3cnc4[nH]ccc4c32)CC1 [Example 337, 3-[4-(2-Cyclopropyl-6H-1,3,5,6-tetraaza-as-indacen-1-yl)-piperidin-1-yl]-propionitrile]	< 500
OCCN1CCC(n2cnc3cnc4[nH]ccc4c32)CC1 [Example 338, 2-[4-(6H-1,3,5,6-Tetraaza-as-indacen-1-yl)-piperidin-1-yl]-ethanol]	< 500
FC(F)(F)CCN1CCC(n2cnc3cnc4[nH]ccc4c32)CC1 [Example 339, 1-[1-(3,3,3-Trifluoro-propyl)-piperidin-4-yl]-1,6-dihydro-1,3,5,6-tetraaza-as-indacene]	< 500
N#C[C@@H]1C[C@@H]1C(=O)N1CCC[C@@H](n2cnc3cnc4[nH]ccc4c32)C1 [Example 340, (1R,2S)-2-[(R)-3-(6H-1,3,5,6-Tetraaza-as-indacen-1-yl)-piperidine-1-carbonyl]-cyclopropanecarbonitrile]	< 500
CN([C@H]1CC[C@H](n2cnc3cnc4[nH]ccc4c32)CC1)S(=O)(=O)C1CC1 [Example 341, Cyclopropanesulfonic acid methyl-[4-(6H-1,3,5,6-tetraaza-as-indacen1-yl)-cyclohexyl]-amide]	< 500
CC(C)(O)Cc1nc2cnc3[nH]ccc3c2n1C1CCN(CCC#N)CC1 [Example 346, 3-{4-[2-(2-Hydroxy-2-methyl-propyl)-6H-1,3,5,6-tetraaza-as-indacen-1-yl)-piperidin-1-yl}-propionitrile]	< 500
O=C(N[C@H]1CC[C@H](n2cnc3cnc4[nH]ccc4c32)CC1)OC1CCCC1 [Example 347, [4-(6H-1,3,5,6-Tetraaza-as-indacen-1-yl)-cyclohexyl]-carbamic acid cyclopentyl ester]	< 500
